Primary screen of a compound library

Measurements from “University of Dundee, Small-Polar-MMV Screening Library” (2021), ChEMBL document CHEMBL3988442.

Values are the deposited “Percent Effect”, in %. How 0% and 100% were set is not recorded. Most values in the screen are low, and negative values occur. The compounds are a random part of those screened. Two or more numbers in one place are separate tests of the same structure; such repeats can differ widely.

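Viability assay of Plasmodium falciparum sporozoites; the read-out is not stated. The concentration is filed as 10 mM, unlikely as a test dose, so the dose is not known. Direction is inferred from retests: higher values go with lower viability. Strong results were mostly tested again. Size under these conditions: about 34,000 compounds, about 280 of them at 50% or above in at least one test.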

Compound	Percent Effect
Cn1cccc1C(=O)NCc1cnc2n1CCN(C(=O)N1CCCC1)C2	-5.519
Cc1ccc(NC(=O)C2=CN=S=N2)cc1	43.11 and -47.35 and -52.34
CCOc1ccccc1OC1CCN(C(=O)c2c[nH]nn2)CC1	5.41
O=C1CCC[C@]2(CN(S(=O)(=O)N3CCCCC3)C[C@H]2c2cccnc2)N1	-1.561
CC(C)Cc1nc(CN2CCOC(Cn3cncn3)C2)no1 (centres unmarked)	9.507
CN(C)C(=O)CN1CCC2(CCCN(Cc3cccnc3)C2)C1=O.O=C(O)C(F)(F)F.O=C(O)C(F)(F)F (centres unmarked)	-7.552
Cc1ccc(-c2nnc(CN3CCc4nn(C)c(=O)cc4C3)o2)cc1	-15.07
CCCC(C)C(=O)NCc1cn2cc(Br)ccc2n1 (centres unmarked)	-3.946
[H][C@@]12C=C[C@@]([H])(C1)[C@H](C(=O)N1CCN(c3cc(C)c4ccccc4n3)CC1)C2	10.01
COc1ncc(C2(O)CCN(Cc3c(F)cccc3F)CC2)c(OC)n1.Cl	1.649
Cc1nn(C)c(C)c1C(=O)N1CCOCC1CC(=O)c1ccco1 (centres unmarked)	-16.12
COc1ccc(-c2nc(CNC(C)Cn3cccn3)cs2)cc1 (centres unmarked)	-39.49 and -48.48
CSC(C)C(=O)N1CCCN(Cc2nccn2C)CC1 (centres unmarked)	2.086
Cc1nnc(C2CCN(c3ccccc3)CC2)o1	5.941
[H][C@]12CCC[C@@]1(COCc1cccnc1)CN(C(=O)c1cocn1)C2	6.807
CCOC(=O)[C@H]1[C@@H](O)C(=O)N(C)C12CCN(C(=O)c1ccccc1)CC2	5.263
Cn1cnc2c1C(COCC1CC1)CN(c1ncccn1)C2.O=C(O)C(F)(F)F.O=C(O)C(F)(F)F (centres unmarked)	3.596
CN1CC(=O)N(c2cnn(C)c2)CC12CCN(C(=O)c1ccsc1)C2.O=C(O)C(F)(F)F (centres unmarked)	-4.586
NC(=O)c1cccc(CS(=O)(=O)CC(O)Cn2cccn2)c1 (centres unmarked)	-18.86 and 0.3509 and -25.86
CN(Cc1nc(N2CCCC2)ncc1-c1ccncc1)C(=O)C(C)(C)C.Cl	3.99
COc1cc(C)sc1C(=O)N1CC(c2cccnc2)C1	-6.941
CN(Cc1ccc(Cl)s1)C(=O)c1cccc(OCC(N)=O)c1	-16.59
COc1cccc(CCC(=O)N2CCN(CC(C)(C)O)CC2)c1	2.019
Cc1cc(N2CCC(Cc3ccccc3)CC2)nc(-c2ccncc2)n1	-0.3556
COCCn1ccc(NCc2sccc2C)n1	-12.34
Cc1cc(C)n(CC2CCCN2Cc2nc(N)c3ccccc3n2)n1 (centres unmarked)	34.23 and 26.24 and 39.19
O=C(O)C(F)(F)F.O=C(O)C(F)(F)F.[H][C@]12CCN(c3ncccn3)[C@@]1([H])CC[C@H](COCc1ccccn1)O2	-7.899
[H][C@@]12CN(Cc3cccc(F)c3)C[C@]1([H])OCCN2CC(=O)N(C)C	14.54
Cc1ncoc1C(=O)N1CCOC(Cc2ccccc2)C1 (centres unmarked)	-5.104
CCN(C(=O)c1ccc2nnc(C3CCN(CCOC)C3)n2c1)C(C)C.O=C(O)C(F)(F)F (centres unmarked)	-5.026
NC(=O)C1(CCCc2ccccn2)CCCN(CCO)C1 (centres unmarked)	3.931
N#Cc1c(N)nc2c(c1-c1c[nH]nc1C1CCCCC1)COCC2	-9.948
CC(C)COCCNC1CCN(c2ccccn2)CC1	-9.314
CN(Cc1cn2c(n1)CN(c1ncc(F)cn1)CC2)Cc1ccco1.O=C(O)C(F)(F)F.O=C(O)C(F)(F)F	-3.345
CN(C)Cc1cnc(C2CCN(C(=O)c3cccc(Cl)c3)C2)[nH]1 (centres unmarked)	2.28
COc1cc(CN(C(=O)Nc2cccnc2OC)C2CC2)ccc1O	-1.145
CCS(=O)(=O)CC(=O)NC1CCc2nccn2C1 (centres unmarked)	-1.225
O=C(O)C(F)(F)F.[H][C@@]12CCN(S(=O)(=O)c3cccnc3)C[C@]1(C(=O)NC)CCO2	-10.51
COc1ccc(F)c(-c2ncccc2NC(=O)C(C)C)c1	0.7692
Cc1ccoc1C(=O)NC1CCN(CC(=O)N(C)c2ccccc2)CC1	4.578
[H][C@]12CC[C@]([H])(C1)N(C(=O)c1cccnc1-c1ccc(OC)nc1)C2	0.7018
Cc1cc(OCCC(=O)Nc2cccc(F)c2)nnc1C	-17.16
Cn1nccc1CCC(=O)NC1CCCN(c2ccccn2)C1 (centres unmarked)	-1.491
CCNC(=O)CNS(=O)(=O)Cc1cc(-c2ccccc2)no1	39.6 and 40.92
Cc1cccc2nc(C(=O)N3CCC(Nc4cccnn4)CC3)cn12	-12.02

Repeated from the top, 4 entries:

{"compound": "Cn1cccc1C(=O)NCc1cnc2n1CCN(C(=O)N1CCCC1)C2", "Percent Effect": -5.519}
{"compound": "Cc1ccc(NC(=O)C2=CN=S=N2)cc1", "Percent Effect": "43.11 and -47.35 and -52.34"}
{"compound": "CCOc1ccccc1OC1CCN(C(=O)c2c[nH]nn2)CC1", "Percent Effect": 5.41}
{"compound": "O=C1CCC[C@]2(CN(S(=O)(=O)N3CCCCC3)C[C@H]2c2cccnc2)N1", "Percent Effect": -1.561}